# No constants are given. Whether binding was seen depends on the method and setting. Binding seen in cells or lysates may run through a third protein. A result given as binding can be weak or reduced; the word gives no strength.
# Amino acid sequences for entries named in this document (tags omitted). A change or cut given only in a name is not applied to a line headed by its entry.
# UniProt A8BVT7: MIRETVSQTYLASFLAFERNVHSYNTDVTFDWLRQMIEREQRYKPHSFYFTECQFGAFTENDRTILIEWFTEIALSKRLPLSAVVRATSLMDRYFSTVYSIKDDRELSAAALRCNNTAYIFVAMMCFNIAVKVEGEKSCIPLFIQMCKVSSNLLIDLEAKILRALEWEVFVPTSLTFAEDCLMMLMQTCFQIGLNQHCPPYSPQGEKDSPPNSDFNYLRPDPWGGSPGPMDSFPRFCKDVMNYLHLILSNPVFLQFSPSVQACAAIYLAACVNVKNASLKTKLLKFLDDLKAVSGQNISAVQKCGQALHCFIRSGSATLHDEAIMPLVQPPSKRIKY
# UniProt A8B940: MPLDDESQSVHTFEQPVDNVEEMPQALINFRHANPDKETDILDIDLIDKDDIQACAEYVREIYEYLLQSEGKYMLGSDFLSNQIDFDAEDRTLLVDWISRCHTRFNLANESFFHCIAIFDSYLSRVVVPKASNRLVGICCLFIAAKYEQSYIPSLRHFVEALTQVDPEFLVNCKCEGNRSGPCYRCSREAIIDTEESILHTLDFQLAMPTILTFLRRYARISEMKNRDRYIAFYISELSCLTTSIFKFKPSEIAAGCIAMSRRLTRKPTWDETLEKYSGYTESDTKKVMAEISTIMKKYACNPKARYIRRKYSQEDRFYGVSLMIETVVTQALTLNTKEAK
# UniProt A8BZ95: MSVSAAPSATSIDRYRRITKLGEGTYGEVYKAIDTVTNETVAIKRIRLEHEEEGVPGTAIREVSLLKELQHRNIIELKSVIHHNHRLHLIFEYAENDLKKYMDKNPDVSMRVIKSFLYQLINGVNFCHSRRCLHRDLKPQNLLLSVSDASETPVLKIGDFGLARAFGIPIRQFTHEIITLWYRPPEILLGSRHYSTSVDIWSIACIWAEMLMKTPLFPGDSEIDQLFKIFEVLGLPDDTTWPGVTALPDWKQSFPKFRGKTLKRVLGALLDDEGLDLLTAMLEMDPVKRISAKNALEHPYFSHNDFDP
# UniProt A8B2A9: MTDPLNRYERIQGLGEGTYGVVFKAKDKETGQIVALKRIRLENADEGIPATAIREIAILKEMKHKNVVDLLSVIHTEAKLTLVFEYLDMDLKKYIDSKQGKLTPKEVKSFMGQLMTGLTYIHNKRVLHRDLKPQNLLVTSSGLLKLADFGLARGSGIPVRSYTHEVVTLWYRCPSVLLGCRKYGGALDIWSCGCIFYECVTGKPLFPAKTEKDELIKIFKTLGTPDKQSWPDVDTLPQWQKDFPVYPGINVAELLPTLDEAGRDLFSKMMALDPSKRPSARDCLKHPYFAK
# UniProt A0A644EZR6: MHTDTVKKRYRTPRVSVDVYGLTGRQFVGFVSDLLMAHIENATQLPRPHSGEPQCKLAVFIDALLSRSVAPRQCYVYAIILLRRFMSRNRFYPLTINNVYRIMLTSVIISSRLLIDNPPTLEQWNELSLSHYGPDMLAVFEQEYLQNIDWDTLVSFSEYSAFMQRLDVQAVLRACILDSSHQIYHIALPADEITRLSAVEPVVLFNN
# UniProt A0A644F7W3: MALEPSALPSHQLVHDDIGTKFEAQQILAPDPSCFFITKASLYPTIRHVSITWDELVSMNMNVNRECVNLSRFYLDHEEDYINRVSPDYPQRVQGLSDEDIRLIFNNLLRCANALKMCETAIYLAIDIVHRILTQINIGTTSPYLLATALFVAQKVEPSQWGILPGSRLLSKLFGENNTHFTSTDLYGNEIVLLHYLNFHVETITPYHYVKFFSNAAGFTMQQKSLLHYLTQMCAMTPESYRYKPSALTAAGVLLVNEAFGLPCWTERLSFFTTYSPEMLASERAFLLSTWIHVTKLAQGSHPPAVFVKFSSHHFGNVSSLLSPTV
# UniProt A0A644F0E8: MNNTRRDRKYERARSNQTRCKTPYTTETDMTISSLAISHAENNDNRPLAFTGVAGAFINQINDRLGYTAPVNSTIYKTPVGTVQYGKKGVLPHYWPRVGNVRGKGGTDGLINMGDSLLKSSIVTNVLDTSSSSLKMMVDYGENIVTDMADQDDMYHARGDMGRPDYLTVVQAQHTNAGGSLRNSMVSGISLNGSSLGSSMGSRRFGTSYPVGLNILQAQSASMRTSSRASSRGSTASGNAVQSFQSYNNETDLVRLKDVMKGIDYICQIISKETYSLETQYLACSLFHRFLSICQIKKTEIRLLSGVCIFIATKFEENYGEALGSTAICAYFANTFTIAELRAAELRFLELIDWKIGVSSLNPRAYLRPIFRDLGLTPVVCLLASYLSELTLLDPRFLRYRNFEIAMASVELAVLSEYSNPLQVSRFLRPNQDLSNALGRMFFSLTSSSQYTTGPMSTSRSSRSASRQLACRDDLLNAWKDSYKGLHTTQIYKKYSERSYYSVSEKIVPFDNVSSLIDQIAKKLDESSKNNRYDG
# Columns and labels:
# [1] = target: Myc-tagged Glcyclin 14488 (Giardia lamblia); experiment: co-IP; lysates of Giardia co-expressing an HA-tagged GlCDK and a Myc-tagged Glcyclin, precleared with protein A/G agarose, precipitated with anti-Myc antibodies at 4°C overnight; lysis buffer 10 mM Tris-HCl, 5 mM EDTA, 130 mM NaCl, 1% Triton X-100, pH 7.4; Western blot with anti-HA or anti-Myc; normal mouse IgG as control
# [2] = target: Myc-tagged Glcyclin 17505 (Giardia lamblia); experiment: as above
# [3] = target: Myc-tagged Glcyclin 22394 (Giardia lamblia) (UniProt A8BVT7); experiment: as above
# [4] = target: Myc-tagged Glcyclin 3977 (Giardia lamblia) (UniProt A8B940); experiment: as above
# [5] = target: Myc-tagged Glcyclin 6584 (Giardia lamblia); experiment: as above
# [6] = target: HA-tagged Giardia lamblia CDK1 (Giardia lamblia) (UniProt A8BZ95); experiment: co-IP; lysates of Giardia co-expressing an HA-tagged GlCDK and a Myc-tagged Glcyclin, precleared with protein A/G agarose, precipitated with anti-HA agarose beads at 4°C overnight; lysis buffer 10 mM Tris-HCl, 5 mM EDTA, 130 mM NaCl, 1% Triton X-100, pH 7.4; Western blot with anti-HA or anti-Myc; normal mouse IgG as control
# [7] = target: HA-tagged Giardia lamblia CDK2 (Giardia lamblia) (UniProt A8B2A9); experiment: as above
substance,measurement,setting,value
HA-tagged Giardia lamblia CDK1 (from UniProt A8BZ95) (enzyme),binding,[1],binds
same,binding,[2],binds
same,binding,[3],no binding
same,binding,[4],binds
same,binding,[5],no binding
HA-tagged Giardia lamblia CDK2 (from UniProt A8B2A9) (enzyme),binding,[1],no binding
same,binding,[2],no binding
same,binding,[3],binds
same,binding,[4],binds
same,binding,[5],binds
Myc-tagged Glcyclin 3977 (from UniProt A8B940),binding,[6],binds
same,binding,[7],binds
Myc-tagged Glcyclin 6584 (from UniProt A0A644EZR6),binding,[7],binds
Myc-tagged Glcyclin 14488 (from UniProt A0A644F7W3),binding,[6],binds
Myc-tagged Glcyclin 17505 (from UniProt A0A644F0E8),binding,[6],binds
Myc-tagged Glcyclin 22394 (from UniProt A8BVT7),binding,[7],binds

# Source: article PMC10100927
